From US20230227833
Negatives hold for the conditions tested.

Sequences of proteins named here, by UniProt entry; tags and fusion partners are left off.
UniProt P19821, whole entry: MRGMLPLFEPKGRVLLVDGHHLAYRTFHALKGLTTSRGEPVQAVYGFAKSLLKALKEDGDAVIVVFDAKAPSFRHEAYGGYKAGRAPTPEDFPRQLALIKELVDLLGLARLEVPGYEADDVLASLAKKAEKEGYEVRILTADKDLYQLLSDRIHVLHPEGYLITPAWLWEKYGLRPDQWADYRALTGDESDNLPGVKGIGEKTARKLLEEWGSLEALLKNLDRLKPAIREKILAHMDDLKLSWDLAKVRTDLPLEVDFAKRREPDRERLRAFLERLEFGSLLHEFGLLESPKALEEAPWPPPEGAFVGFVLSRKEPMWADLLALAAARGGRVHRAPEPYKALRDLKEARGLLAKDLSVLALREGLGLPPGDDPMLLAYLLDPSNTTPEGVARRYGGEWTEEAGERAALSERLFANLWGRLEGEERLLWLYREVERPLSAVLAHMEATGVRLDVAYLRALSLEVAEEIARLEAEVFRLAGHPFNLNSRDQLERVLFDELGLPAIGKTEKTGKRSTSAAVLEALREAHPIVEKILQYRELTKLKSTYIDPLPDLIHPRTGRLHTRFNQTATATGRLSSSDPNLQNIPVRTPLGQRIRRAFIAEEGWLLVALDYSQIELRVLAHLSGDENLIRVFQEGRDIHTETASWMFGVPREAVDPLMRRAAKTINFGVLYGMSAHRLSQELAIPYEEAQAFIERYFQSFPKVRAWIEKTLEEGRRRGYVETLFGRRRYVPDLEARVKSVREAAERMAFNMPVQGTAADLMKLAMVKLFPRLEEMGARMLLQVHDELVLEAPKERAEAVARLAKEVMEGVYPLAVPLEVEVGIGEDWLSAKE

Target: Taq DNA polymerase (UniProt P19821)
Test: inhibition of the protein
Details: purified recombinant protein, folded or branched DNA

## TCGAACGGATTACAGCTGTAATC [analog 2 (Example 10)]
3' dideoxy, inhibits at 30 and 40 C, release starts at 50 C, complete at 60 C
  activity on this sequence: active

## TCGAACGGTATATATATTAATATATATATAC [ligand 1 3' amino]
3' amino, inhibits at 45 C, released at 70 C, variant of ligand 1 (3' dideoxy)
  activity on this sequence: active

## TCGAACGGTATATATATTAATATATATATAC [ligand 1 3' phosphorylated]
3' phosphate, inhibits at 45 C, released at 70 C, variant of ligand 1 (3' dideoxy)
  activity on this sequence: active

## TCGAACGGTATATATATTAATATATATATAC [ligand 1 (3' dideoxy)]
3' dideoxy, activity lost below 50 C, fully released at 70 C
  activity on this sequence: active

## TCGAACGGTATATATATTAATATATATATAC [ligand 1 control, 3' unmodified]
3' unmodified control, full polymerase activity retained (45 C in Example 4), variant of ligand 1 (3' dideoxy)
  activity on this sequence: not active
